The target of the experiment is T1, FLAG-CEP78 (human) (UniProt Q5JTW2).
T1 sequence: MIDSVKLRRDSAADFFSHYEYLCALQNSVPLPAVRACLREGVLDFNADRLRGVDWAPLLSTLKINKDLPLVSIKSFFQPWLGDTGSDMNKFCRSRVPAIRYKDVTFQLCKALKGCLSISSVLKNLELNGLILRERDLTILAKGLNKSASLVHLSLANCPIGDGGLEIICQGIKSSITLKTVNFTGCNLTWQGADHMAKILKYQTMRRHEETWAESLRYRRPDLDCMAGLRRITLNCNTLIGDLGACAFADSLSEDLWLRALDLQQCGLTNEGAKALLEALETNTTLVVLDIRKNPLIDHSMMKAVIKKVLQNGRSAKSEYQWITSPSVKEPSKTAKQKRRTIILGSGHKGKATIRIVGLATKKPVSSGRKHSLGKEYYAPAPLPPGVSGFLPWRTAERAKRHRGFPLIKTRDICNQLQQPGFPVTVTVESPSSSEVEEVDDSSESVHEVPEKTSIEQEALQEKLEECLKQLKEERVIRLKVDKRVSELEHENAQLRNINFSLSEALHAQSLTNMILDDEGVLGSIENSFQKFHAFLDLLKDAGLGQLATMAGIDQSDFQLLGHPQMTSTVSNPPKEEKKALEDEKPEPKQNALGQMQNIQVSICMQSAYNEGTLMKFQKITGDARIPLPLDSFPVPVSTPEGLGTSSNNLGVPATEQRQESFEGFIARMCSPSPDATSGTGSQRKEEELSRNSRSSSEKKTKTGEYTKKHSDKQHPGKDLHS
As to the kind of experiment: affinity purification with mass spectrometry; SILAC-labelled 293T cells transfected with FLAG-CEP78, FLAG-CEP78^L150S or FLAG-Ap80 (control); lysis in modified EBC buffer, FLAG IP, LC-MS of the pellets.

Sequences of proteins named here, by UniProt entry; tags and fusion partners are left off.
UniProt Q5VT06: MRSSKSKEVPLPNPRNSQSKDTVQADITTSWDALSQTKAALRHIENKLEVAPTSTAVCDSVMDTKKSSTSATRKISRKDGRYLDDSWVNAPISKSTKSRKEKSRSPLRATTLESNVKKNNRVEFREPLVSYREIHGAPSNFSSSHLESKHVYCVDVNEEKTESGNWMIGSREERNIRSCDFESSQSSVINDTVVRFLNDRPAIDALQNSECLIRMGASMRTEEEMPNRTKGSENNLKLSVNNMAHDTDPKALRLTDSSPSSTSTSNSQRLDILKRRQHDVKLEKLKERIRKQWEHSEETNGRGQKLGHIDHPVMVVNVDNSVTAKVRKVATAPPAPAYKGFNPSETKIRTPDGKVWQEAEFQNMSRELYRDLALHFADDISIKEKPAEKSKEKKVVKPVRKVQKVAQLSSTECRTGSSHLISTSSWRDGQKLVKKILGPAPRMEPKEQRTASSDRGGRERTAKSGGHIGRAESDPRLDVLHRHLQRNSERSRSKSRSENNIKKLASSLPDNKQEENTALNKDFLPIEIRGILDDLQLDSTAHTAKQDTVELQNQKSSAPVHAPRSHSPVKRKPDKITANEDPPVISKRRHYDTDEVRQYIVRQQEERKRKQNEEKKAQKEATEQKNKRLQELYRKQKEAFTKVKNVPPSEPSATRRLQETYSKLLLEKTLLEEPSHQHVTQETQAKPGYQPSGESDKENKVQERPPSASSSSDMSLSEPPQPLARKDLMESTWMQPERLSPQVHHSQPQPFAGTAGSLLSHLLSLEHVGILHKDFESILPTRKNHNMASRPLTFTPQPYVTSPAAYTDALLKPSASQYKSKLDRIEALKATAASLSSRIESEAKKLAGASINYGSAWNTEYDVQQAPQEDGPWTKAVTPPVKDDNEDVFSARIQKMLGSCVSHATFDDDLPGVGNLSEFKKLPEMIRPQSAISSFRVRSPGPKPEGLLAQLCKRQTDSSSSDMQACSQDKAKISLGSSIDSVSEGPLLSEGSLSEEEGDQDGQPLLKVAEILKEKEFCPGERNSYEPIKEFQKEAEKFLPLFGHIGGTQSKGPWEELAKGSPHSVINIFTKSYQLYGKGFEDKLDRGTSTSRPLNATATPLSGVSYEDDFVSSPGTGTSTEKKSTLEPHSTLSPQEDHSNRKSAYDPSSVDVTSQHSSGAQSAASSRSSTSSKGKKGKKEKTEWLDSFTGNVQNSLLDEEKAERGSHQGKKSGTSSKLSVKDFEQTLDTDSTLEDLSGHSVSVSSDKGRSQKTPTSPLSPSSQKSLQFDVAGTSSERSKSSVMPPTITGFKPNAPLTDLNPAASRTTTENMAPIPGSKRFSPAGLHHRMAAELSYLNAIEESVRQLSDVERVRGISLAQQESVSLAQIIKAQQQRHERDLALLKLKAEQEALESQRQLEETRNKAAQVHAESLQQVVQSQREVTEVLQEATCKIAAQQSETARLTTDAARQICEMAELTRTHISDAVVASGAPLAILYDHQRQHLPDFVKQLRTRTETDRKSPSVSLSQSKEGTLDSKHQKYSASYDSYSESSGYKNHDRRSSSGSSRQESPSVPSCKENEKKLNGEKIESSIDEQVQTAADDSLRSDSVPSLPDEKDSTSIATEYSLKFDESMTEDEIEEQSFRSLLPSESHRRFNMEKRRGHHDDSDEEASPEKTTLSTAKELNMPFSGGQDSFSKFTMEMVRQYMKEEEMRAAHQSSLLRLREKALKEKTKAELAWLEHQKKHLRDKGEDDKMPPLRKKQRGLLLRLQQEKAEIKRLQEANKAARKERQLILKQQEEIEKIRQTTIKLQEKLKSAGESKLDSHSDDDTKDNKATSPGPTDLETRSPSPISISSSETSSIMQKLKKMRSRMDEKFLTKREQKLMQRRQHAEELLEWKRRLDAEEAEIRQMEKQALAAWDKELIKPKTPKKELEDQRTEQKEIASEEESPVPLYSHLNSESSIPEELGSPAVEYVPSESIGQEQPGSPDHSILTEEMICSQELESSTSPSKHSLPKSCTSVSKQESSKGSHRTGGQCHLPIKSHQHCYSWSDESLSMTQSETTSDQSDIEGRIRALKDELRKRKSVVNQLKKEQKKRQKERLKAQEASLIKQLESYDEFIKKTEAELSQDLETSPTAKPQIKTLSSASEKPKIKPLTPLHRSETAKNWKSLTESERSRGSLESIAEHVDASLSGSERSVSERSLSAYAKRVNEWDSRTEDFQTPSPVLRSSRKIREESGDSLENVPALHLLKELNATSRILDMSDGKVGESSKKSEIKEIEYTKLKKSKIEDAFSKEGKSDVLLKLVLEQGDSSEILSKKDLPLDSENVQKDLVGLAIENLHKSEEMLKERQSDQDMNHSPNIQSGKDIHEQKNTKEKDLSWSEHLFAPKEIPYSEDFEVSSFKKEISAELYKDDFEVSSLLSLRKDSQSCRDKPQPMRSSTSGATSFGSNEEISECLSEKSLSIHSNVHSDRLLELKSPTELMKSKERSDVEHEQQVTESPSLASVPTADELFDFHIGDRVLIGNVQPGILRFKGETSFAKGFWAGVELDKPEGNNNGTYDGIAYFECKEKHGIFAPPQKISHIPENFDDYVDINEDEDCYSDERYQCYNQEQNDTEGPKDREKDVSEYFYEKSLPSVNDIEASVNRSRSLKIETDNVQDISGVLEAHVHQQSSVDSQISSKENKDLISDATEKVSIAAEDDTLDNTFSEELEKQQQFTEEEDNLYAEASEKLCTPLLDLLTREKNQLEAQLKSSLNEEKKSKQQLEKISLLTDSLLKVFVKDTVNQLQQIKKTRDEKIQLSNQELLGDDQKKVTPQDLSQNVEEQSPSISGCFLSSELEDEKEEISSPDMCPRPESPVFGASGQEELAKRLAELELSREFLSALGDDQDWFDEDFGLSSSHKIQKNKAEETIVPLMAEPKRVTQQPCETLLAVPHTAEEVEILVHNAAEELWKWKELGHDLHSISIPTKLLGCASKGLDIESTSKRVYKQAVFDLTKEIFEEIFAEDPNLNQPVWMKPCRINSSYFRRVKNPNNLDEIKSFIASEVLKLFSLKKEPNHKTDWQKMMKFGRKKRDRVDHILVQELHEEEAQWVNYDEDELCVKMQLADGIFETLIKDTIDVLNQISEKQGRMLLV

Results are given in words; binding and its absence hold for the method and conditions named. Binding seen in cells or lysates may run through a third protein. Here binding means that the protein was enriched with, or labelled near, the bait; the list need not be complete. Sequences can lack the tags named with a protein.

For the substance CEP350 (from UniProt Q5VT06 1-3117), the binding entry is “binds”.
